Measured values published in publication doi:10.1101/2024.07.01.601633.
These are yes or no findings as the source states them, for the method shown. In cells and extracts the contact can be indirect. For some assays here: A result given as binding can be weak or reduced; the word gives no strength.

Protein sequences, listed by entry. Tags and fused reporters are not part of them. Lines headed by an entry give the natural chain unless they say otherwise; changes in a name come on top. Residues count along the entry.
UniProt P14314, residues 15-528: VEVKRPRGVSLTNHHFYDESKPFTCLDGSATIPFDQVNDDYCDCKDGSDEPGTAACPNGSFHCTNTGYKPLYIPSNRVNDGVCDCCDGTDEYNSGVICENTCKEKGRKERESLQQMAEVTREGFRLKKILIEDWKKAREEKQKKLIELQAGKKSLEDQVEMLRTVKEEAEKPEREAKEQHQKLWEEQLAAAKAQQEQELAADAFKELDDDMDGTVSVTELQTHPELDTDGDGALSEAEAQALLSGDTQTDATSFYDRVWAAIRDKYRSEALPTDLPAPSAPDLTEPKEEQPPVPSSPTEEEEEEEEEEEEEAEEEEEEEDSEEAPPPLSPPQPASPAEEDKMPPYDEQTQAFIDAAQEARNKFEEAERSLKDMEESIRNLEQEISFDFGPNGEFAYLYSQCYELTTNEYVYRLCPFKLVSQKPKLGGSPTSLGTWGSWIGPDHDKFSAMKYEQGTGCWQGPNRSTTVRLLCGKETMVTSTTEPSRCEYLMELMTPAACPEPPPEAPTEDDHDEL
UniProt Q14571: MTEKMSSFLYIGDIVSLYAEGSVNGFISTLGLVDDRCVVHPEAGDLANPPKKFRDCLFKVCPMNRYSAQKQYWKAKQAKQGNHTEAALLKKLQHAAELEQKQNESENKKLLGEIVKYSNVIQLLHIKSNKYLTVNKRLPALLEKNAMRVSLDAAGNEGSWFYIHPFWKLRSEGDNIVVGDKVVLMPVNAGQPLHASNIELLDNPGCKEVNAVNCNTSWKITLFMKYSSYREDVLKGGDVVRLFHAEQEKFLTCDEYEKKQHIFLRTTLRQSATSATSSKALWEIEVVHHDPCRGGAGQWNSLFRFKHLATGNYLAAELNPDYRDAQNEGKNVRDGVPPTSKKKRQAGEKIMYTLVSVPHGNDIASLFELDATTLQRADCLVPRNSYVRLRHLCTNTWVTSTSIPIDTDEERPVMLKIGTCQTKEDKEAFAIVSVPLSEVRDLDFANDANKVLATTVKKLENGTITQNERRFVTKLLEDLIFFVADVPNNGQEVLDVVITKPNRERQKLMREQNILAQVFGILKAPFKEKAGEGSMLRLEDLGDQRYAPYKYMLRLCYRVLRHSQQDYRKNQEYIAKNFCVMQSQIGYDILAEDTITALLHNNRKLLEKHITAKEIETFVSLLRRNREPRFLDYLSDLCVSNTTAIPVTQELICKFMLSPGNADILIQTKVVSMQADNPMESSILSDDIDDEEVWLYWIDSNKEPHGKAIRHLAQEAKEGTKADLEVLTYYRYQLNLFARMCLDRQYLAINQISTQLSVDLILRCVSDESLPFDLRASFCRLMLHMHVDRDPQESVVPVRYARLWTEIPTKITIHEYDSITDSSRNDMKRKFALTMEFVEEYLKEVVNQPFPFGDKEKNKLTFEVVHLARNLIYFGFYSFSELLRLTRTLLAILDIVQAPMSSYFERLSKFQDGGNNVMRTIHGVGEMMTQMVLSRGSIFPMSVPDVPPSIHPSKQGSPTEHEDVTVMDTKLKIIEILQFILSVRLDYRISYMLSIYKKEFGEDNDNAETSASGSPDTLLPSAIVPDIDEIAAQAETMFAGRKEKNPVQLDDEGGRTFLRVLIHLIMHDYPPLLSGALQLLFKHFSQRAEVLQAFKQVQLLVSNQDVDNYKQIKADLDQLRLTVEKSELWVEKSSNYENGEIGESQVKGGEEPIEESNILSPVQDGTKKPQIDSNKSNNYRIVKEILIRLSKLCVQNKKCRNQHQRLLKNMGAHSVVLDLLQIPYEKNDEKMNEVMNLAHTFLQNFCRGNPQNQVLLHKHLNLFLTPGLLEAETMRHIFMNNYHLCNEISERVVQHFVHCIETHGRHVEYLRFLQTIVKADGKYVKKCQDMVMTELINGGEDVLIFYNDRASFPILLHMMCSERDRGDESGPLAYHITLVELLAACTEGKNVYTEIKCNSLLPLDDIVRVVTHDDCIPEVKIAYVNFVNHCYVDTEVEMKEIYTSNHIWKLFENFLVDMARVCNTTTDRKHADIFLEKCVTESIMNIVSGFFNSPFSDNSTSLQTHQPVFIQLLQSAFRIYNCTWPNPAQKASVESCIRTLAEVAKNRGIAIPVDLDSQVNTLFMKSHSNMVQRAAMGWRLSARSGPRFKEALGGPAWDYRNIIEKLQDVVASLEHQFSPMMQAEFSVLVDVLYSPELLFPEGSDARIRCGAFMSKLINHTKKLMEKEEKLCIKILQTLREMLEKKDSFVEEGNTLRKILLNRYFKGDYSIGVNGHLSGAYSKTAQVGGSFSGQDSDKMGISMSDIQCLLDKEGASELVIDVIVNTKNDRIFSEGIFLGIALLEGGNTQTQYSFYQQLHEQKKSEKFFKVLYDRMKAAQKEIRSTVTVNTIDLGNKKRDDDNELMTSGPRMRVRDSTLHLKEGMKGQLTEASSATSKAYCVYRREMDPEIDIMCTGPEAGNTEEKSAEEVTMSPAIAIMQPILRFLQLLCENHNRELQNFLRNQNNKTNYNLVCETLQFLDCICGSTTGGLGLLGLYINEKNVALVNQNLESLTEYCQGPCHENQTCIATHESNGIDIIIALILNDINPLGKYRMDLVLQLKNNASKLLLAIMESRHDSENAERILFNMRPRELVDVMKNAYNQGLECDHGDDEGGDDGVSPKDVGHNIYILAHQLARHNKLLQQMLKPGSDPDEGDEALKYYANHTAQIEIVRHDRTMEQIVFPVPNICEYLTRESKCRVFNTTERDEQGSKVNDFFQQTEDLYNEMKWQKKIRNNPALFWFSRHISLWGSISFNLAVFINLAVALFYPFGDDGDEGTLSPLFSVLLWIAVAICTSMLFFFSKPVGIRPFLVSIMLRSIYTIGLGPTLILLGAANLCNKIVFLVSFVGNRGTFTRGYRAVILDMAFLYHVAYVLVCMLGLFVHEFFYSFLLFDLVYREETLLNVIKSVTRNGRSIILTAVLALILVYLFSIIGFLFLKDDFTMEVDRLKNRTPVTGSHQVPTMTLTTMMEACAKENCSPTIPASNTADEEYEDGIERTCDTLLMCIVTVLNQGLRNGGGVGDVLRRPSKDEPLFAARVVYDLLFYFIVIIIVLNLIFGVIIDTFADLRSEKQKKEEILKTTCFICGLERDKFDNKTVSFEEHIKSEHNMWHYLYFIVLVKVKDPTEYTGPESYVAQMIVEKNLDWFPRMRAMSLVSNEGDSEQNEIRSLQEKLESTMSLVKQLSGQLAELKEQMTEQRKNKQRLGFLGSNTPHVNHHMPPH
UniProt Q14573: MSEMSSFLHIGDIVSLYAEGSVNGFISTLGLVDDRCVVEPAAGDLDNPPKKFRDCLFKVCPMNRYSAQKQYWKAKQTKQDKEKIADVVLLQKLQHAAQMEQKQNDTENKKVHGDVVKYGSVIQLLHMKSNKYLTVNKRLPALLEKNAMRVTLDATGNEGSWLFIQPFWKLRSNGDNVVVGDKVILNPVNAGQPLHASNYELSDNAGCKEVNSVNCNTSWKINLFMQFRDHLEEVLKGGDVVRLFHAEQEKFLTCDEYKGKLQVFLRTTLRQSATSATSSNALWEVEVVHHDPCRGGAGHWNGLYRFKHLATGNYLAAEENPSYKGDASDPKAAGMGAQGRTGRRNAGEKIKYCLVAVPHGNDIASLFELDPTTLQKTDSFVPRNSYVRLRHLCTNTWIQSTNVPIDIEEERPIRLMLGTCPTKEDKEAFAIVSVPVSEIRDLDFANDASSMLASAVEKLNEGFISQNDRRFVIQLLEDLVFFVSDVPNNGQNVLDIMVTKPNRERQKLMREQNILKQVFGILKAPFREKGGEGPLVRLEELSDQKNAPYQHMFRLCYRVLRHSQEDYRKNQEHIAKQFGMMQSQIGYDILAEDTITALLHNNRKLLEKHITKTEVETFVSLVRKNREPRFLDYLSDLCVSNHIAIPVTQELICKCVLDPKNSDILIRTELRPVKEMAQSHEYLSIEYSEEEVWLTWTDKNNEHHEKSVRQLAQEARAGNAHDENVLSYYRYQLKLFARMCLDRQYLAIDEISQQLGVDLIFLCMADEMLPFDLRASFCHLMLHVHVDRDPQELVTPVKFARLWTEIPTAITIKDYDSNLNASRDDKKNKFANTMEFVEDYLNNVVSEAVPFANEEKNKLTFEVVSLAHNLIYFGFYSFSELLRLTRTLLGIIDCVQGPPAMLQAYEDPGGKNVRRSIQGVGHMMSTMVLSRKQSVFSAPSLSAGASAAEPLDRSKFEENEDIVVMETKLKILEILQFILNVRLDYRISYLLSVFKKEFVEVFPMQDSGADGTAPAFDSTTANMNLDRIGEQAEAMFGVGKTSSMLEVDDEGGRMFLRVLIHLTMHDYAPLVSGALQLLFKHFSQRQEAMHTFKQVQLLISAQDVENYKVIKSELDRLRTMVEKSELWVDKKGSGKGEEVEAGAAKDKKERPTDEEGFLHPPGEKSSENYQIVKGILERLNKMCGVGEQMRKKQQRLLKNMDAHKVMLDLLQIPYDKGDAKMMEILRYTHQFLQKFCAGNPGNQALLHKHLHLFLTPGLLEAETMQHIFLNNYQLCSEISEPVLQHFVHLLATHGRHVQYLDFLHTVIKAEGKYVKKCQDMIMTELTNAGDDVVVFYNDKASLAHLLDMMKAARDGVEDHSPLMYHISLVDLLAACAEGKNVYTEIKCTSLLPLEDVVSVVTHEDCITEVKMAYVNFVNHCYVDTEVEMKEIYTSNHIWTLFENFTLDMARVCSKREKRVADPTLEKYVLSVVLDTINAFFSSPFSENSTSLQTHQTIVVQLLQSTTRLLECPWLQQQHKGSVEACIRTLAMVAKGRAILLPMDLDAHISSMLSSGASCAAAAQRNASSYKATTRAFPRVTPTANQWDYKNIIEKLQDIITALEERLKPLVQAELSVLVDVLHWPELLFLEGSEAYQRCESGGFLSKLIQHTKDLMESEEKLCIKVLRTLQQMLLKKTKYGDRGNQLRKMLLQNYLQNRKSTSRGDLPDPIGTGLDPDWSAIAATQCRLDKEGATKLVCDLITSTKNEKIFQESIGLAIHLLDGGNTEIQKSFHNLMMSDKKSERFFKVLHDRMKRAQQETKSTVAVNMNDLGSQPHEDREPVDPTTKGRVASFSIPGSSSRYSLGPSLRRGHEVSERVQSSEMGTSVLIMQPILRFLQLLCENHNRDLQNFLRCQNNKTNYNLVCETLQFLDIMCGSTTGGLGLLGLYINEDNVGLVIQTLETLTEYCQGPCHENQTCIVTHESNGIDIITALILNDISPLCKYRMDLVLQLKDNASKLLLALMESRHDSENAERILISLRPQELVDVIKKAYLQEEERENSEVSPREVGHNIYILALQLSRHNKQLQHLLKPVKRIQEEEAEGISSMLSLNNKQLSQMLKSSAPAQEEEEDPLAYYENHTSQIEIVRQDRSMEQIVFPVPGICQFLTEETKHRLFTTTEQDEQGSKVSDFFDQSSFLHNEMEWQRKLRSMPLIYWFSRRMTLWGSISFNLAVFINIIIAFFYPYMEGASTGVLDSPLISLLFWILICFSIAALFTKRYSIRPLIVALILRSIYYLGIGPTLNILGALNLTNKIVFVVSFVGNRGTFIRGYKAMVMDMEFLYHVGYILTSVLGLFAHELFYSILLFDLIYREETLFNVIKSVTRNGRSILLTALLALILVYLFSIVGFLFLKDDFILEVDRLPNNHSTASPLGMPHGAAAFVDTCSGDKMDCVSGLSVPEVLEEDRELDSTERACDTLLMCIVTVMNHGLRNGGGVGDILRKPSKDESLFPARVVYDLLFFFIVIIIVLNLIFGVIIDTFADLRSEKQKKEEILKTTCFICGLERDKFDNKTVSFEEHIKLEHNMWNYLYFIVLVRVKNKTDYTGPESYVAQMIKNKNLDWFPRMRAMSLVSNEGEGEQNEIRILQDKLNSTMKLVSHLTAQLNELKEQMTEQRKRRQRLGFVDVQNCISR

How the values were obtained:
Test in all cases: co-IP
PRKCSH = PRKCSH (UniProt P14314)
[1] = biological target: IP3R1 C-terminus (a.a. 2535–2695)
Endophilin = biological target: Endophilin
[2] = biological target: IP3R1 N-terminus (a.a. 1–600)
IP3R2 C-terminus = IP3R2 C-terminus (UniProt Q14571)
IP3R3 C-terminus = IP3R3 C-terminus (UniProt Q14573)

myoclonin1 DM10 domain (first of the three) (from UniProt Q5JVL4) (domain or fragment)
binding (PRKCSH): binds

myoclonin1 DM10 domain (third of the three) (from UniProt Q5JVL4) (domain or fragment)
binding (PRKCSH): binds

myoclonin1 DM10 domain (second of the three) (from UniProt Q5JVL4) (domain or fragment)
binding (PRKCSH): binds

B1: myoclonin1 (protein, UniProt Q5JVL4 1-640)
chain: MVSNPVHGLPFLPGTSFKDSTKTAFHRSQTLSYRNGYAIVRRPTVGIGGDRLQFNQLSQAELDELASKAPVLTYGQPKQAPPADFIPAHVAFDKKVLKFDAYFQEDVPMSTEEQYRIRQVNIYYYLEDDSMSVIEPVVENSGILQGKLIKRQRLAKNDRGDHYHWKDLNRGINITIYGKTFRVVDCDQFTQVFLESQGIELNPPEKMALDPYTELRKQPLRKYVTPSDFDQLKQFLTFDKQVLRFYAIWDDTDSMYGECRTYIIHYYLMDDTVEIREVHERNDGRDPFPLLMNRQRVPKVLVENAKNFPQCVLEISDQEVLEWYTAKDFIVGKSLTILGRTFFIYDCDPFTRRYYKEKFGITDLPRIDVSKREPPPVKQELPPYNGFGLVEDSAQNCFALIPKAPKKDVIKMLVNDNKVLRYLAVLESPIPEDKDRRFVFSYFLATDMISIFEPPVRNSGIIGGKYLGRTKVVKPYSTVDNPVYYGPSDFFIGAVIEVFGHRFIILDTDEYVLKYMESNAAQYSPEALASIQNHVRKREAPAPEAESKQTEKDPGVQELEALIDTIQKQLKDHSCKDNIREAFQIYDKEASGYVDRDMFFKICESLNVPVDDSLVKELIRMCSHGEGKINYYNFVRAFSN
binding [1]: binds
binding (Endophilin): no binding
binding [2]: no binding
binding (IP3R2 C-terminus): binds
binding (IP3R3 C-terminus): binds
